Reference: paper PMC4455066

Columns and labels:
[1] = molecular target: T1, Ars2, tandem affinity tagged (bait) (S. pombe) (UniProt O94326); assay: affinity purification with mass spectrometry; tandem affinity purification of an FTP-tagged bait from S. pombe cell extract (IgG beads, TEV cleavage with Benzonase, anti-Flag beads, Flag peptide elution); 50 mM HEPES pH 7.0, 100 mM NaCl, 1.5 mM MgCl2, 0.15% NP-40; MALDI-TOF of single bands and LC-MS/MS of the whole eluate; wild-type cells, also red1Δ and rmn1Δ backgrounds
T1 sequence: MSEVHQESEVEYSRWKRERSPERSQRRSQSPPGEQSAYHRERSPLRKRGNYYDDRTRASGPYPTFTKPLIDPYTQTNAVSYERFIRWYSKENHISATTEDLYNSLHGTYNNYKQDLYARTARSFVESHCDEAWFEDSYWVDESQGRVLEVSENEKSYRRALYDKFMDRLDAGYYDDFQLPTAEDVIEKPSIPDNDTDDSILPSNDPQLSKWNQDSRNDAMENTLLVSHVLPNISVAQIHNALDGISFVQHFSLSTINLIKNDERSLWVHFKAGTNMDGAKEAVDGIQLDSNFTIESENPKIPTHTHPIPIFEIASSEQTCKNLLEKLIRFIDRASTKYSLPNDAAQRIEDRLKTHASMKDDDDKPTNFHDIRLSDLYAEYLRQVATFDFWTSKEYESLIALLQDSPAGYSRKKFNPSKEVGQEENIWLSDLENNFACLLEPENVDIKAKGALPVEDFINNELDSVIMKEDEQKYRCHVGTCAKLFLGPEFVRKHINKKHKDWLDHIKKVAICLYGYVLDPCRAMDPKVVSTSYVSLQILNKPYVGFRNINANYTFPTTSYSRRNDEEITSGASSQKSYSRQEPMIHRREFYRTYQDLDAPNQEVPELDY

[2] = molecular target: T2, Cbc1, tandem affinity tagged (bait) (S. pombe) (UniProt O14253); assay: as above
T2 sequence: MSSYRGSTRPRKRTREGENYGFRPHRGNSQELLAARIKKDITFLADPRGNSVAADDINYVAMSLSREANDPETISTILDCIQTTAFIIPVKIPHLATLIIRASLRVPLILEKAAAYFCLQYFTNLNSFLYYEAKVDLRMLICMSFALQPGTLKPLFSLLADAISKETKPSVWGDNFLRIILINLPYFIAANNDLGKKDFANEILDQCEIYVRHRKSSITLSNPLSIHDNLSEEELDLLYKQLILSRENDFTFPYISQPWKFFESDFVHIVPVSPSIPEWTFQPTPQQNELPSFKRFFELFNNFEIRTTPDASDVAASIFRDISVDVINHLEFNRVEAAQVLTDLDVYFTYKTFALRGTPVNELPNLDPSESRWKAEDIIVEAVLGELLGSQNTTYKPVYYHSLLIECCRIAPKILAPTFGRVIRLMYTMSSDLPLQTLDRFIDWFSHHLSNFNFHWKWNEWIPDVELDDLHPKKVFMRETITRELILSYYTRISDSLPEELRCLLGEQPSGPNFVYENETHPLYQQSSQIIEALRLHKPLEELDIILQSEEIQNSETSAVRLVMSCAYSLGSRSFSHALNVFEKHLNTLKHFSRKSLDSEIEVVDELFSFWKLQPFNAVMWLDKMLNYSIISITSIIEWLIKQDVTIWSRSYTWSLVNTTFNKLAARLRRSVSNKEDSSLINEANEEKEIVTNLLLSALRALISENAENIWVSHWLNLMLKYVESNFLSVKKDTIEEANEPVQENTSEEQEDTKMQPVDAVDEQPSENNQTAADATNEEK

[3] = molecular target: Iss10, split-tag bait (second purification step) (S. pombe); assay: affinity purification with mass spectrometry; split-tag purification: first step by Mtl1, second step by Iss10, Cbc1 or Pab2; from S. pombe cell extract
[4] = molecular target: T3, Pab2, split-tag bait (second purification step) (S. pombe) (UniProt O14327); assay: as above
T3 sequence: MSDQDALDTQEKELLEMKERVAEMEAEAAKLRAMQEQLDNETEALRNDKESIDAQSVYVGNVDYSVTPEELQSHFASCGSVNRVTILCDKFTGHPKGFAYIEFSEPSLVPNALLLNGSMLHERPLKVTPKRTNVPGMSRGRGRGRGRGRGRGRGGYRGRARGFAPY

[5] = molecular target: T4, Cbc1, split-tag bait (second purification step) (S. pombe) (UniProt O14253); assay: as above
T4 sequence: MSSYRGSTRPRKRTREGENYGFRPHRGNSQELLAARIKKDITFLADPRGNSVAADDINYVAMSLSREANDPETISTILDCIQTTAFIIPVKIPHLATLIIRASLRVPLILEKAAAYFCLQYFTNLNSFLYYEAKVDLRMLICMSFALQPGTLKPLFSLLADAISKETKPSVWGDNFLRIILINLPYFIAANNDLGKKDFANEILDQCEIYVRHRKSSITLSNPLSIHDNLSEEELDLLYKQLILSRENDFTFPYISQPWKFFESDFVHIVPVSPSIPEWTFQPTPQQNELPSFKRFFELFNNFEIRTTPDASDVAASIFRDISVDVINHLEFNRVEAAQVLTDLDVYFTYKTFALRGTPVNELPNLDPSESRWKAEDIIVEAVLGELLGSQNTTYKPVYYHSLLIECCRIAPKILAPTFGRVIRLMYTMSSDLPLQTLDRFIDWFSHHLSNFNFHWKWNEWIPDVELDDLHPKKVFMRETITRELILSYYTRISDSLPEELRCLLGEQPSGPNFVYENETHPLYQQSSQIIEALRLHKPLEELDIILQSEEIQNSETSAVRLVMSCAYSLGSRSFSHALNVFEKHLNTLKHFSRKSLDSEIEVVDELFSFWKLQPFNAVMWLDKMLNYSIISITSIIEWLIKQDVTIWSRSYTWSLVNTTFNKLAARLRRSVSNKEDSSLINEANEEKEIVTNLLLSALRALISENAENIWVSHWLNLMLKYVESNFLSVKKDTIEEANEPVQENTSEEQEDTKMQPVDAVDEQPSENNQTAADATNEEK

[6] = molecular target: Mtl1, split-tag bait (first purification step) (S. pombe); assay: as above
[7] = molecular target: Red5–FTP (S. pombe); assay: affinity purification with mass spectrometry; tandem affinity purification of an FTP-tagged bait from S. pombe cell extract (IgG beads, TEV cleavage with Benzonase, anti-Flag beads, Flag peptide elution); 50 mM HEPES pH 7.0, 100 mM NaCl, 1.5 mM MgCl2, 0.15% NP-40; MALDI-TOF of single bands and LC-MS/MS of the whole eluate; wild-type cells, also red1Δ and rmn1Δ backgrounds
[8] = molecular target: T5, Red1–FTP (S. pombe) (UniProt Q9UTR8); assay: as above
T5 sequence: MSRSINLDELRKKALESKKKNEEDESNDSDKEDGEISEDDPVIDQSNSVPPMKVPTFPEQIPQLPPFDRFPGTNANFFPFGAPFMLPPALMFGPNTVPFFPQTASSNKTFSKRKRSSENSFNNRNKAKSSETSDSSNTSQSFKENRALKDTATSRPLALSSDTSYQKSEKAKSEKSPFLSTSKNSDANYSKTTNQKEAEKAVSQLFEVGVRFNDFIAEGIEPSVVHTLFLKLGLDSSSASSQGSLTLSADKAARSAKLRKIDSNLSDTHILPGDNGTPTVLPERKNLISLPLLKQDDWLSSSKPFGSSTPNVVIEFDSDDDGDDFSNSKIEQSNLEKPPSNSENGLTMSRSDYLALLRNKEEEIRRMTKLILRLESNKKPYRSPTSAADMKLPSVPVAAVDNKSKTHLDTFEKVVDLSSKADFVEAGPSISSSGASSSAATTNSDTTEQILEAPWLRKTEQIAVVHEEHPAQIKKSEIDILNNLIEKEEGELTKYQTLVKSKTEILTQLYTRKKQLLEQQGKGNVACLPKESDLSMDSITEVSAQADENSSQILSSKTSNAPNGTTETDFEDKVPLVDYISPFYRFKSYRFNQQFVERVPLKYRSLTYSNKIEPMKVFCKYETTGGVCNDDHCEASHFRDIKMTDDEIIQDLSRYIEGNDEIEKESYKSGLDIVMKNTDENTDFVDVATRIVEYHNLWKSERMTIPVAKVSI

[9] = molecular target: Mtl1–FTP (S. pombe); assay: as above
[10] = molecular target: Ctr1–FTP (S. pombe); assay: as above
[11] = molecular target: Nrl1–FTP (S. pombe); assay: as above

Measured: binding

MTREC complex (S. pombe)
binds: [1] | [2]

B1: Mmi1 (protein, UniProt O74958 1-488)
chain: MSNTNFSTSRSSKSIPELPNLEALRSLWPPPSLNESGDTRSVWTTHTGEPVASSVLSTSGSNNFSSPLKRPAPESHDAPIGRRLMVDDPRLIKHGKYDFSRHCTDYGHSYEWPYFRSLRRESMLYHTSGSYPESQPPYSSYSTDAPHYYHAGSESSAYYDSRSRLHGIQPPPKRRTLSPPPRRLADPVVVGSSRYVEEEVYRRPPYTLASEVPSSASAYQAGYSSYPVRSSPQLSHEDTRHGIASSGSTRYPFVPANTRASHSPSLLEPYAHSLPSSVAPVGAYPEKSSYLLSNSSNDSASRKEKPKARASTPPPLNFSRASEHRNEKGERISMINPRVVLDENGISHRSRYFIMLCDNETAIAHAKKTSIWAVKKDSSKRISDAYKKASVYFIFVAQQTYNALGYAQVVSDLNSTELPFWSDSSHAGGVRIKWIKTCNLFSAEISEIVSHMDHGSEARDGMEMMYDEGSRLCTLINYAIMKRIGRDR
binds: [3] | [4] | [5] | [6] | [7] | [8] | [9] | [10] | [11]

B2: Ars2 (protein, UniProt O94326 1-609)
chain: MSEVHQESEVEYSRWKRERSPERSQRRSQSPPGEQSAYHRERSPLRKRGNYYDDRTRASGPYPTFTKPLIDPYTQTNAVSYERFIRWYSKENHISATTEDLYNSLHGTYNNYKQDLYARTARSFVESHCDEAWFEDSYWVDESQGRVLEVSENEKSYRRALYDKFMDRLDAGYYDDFQLPTAEDVIEKPSIPDNDTDDSILPSNDPQLSKWNQDSRNDAMENTLLVSHVLPNISVAQIHNALDGISFVQHFSLSTINLIKNDERSLWVHFKAGTNMDGAKEAVDGIQLDSNFTIESENPKIPTHTHPIPIFEIASSEQTCKNLLEKLIRFIDRASTKYSLPNDAAQRIEDRLKTHASMKDDDDKPTNFHDIRLSDLYAEYLRQVATFDFWTSKEYESLIALLQDSPAGYSRKKFNPSKEVGQEENIWLSDLENNFACLLEPENVDIKAKGALPVEDFINNELDSVIMKEDEQKYRCHVGTCAKLFLGPEFVRKHINKKHKDWLDHIKKVAICLYGYVLDPCRAMDPKVVSTSYVSLQILNKPYVGFRNINANYTFPTTSYSRRNDEEITSGASSQKSYSRQEPMIHRREFYRTYQDLDAPNQEVPELDY
binds: [3] | [4] | [5] | [6] | [7] | [8] | [9] | [2]

B3: Cbc2 (protein, UniProt Q9P383 1-182)
chain: MASITRLDAVSPYLIRRFKNDLRALDAVKQSNCVYVGNLSFYTTEEQIYALFSKCGEIRRIIMGVDRFTKTPCGFCFVEYFENQDALDSLKYISRTSLDERIIRADLDHGYEEGRQYGRGASGGQVRDEMREEFDPGRGGYAKNRQPTSSRQLANYSGISSAPLGSSLELQSNPRYNRWKKN
binds: [3] | [4] | [5] | [6] | [7] | [8] | [9] | [1] | [2]

No constants are given. Whether binding was seen depends on the method and setting. In cells and extracts the contact can be indirect. Here binding means that the protein was enriched with, or labelled near, the bait; the list need not be complete. For some of these results: Tags and fused reporters may be left off the sequences shown.
